Reference: publication PMC11122047
No constants are given. Whether binding was seen depends on the method and setting. Binding seen in cells or lysates may run through a third protein. Some entries that bind do so weakly or less than the wild type.

By UniProt entry, the sequences of proteins in these tests, tags left out. Where a name states a change or a piece, a line headed by the entry shows the natural chain unless it says otherwise. Chains listed by the source or under a name are the forms on record and can include a tag or linker. Residues count along the entry.
TrkAIII (alternative splice variant of the neurotrophin receptor tropomyosin-related kinase A, NTRK1/TrkA) (P04629, form named): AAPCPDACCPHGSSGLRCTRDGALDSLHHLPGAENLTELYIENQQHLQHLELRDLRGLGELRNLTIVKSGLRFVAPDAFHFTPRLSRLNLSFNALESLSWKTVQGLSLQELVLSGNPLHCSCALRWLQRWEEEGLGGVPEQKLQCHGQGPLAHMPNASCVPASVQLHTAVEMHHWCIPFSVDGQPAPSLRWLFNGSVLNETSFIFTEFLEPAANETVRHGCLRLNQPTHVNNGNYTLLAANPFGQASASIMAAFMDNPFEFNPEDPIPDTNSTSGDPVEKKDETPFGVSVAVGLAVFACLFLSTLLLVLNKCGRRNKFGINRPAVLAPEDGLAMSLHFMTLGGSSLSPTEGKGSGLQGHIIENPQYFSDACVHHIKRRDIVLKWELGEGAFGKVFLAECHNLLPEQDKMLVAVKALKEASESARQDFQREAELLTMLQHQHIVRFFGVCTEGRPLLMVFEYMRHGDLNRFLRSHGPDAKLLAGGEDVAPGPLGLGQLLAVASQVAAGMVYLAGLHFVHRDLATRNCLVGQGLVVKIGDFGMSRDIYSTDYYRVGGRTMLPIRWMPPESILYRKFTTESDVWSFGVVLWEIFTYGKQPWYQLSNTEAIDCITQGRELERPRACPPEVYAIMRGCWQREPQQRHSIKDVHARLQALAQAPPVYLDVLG
UniProt P11021, residues 19-654: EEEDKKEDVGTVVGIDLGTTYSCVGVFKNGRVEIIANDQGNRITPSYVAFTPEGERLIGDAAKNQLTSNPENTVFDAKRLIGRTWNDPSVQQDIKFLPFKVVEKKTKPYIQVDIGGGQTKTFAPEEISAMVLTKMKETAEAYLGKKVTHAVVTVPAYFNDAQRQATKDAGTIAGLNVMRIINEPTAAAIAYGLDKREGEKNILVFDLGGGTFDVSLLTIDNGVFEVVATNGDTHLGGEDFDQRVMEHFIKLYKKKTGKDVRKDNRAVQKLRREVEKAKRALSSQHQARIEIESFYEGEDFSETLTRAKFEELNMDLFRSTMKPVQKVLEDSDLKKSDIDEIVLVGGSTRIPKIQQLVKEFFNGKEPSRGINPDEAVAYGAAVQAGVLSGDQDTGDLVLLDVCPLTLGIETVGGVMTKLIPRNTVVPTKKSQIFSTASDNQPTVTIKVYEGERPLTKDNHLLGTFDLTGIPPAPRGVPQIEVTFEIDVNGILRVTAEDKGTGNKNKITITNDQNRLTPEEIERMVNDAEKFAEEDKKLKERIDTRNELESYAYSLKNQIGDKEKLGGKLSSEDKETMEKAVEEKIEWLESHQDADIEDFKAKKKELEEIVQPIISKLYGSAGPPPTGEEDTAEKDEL

Molecular target: TrkAIII (alternative splice variant of the neurotrophin receptor tropomyosin-related kinase A, NTRK1/TrkA) (human) (UniProt P04629)
Experiment: co-IP; anti-TrkA antibody, protein A Sepharose, overnight at 4 °C in lysis buffer (PBS, 0.5% sodium deoxycholate, 1% NP40, 0.1% SDS); extracts of TrkAIII SH-SY5Y cells untreated or treated with 5 mM DTT for 6 h; Grp78 detected by Western blot

binding: binds
Substance: 78kDa glucose regulated protein (Grp78) (from UniProt P11021 19-654)
